Results: PubChem BioAssay AID624297 (National Center for Advancing Translational Sciences (NCATS), 2012)
“And” between values parts separate entries of the source, which are not always exact repeats. Equal values may be shown once. The campaign covered roughly 340,000 compounds. About 6,200 (1.8%) were called active. Inconclusive results, whose numbers are uncertain, are shown with a selection of clear calls. Calls follow the shape of the dose curve; as a rule, active = well fitted activation curve with a large enough effect; inconclusive = small, poorly fitted or top-dose-only effect; inactive = no such curve, though single readings can be large or run the other way. A potency beside an inconclusive call is a rough fit, not a confirmed value.

assay: A quantitative high throughput screen for small molecules that induce DNA re-replication in SW480 colon adenocarcinoma cells.; also: nearly all actives have a fitted effect of over 55% in size; as to re-replication activation: % of control where 0% means no effect; conditions: Hoechst DNA content imaging, 48 h; re-replication activation: at 46.1 µM (top of the series) unless noted
How it was run: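 Image-based read-out: total Hoechst fluorescence of nuclei (405 nm excitation, 500-530 nm emission), with hits raising the fraction of high-intensity nuclei. SW480 colon cells incubated 48 hr with compounds at 37 C.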
Potency is read from the fitted curve at half-maximal effect.

Compound	Potency	re-replication activation
CC(C)Cn1c([N+](=O)[O-])nc2c1c(=O)[nH]c(=O)n2C	inconclusive: 6.51 µM [activator, single point]	
O=C(NCc1ccccc1)C1CCCN(S(=O)(=O)c2cccc3nonc23)C1 (stereo not drawn)		inactive: -459%
COc1ccc(N2C(=O)C3C(c4ccc(C(=O)O)cc4)NC(Cc4ccccc4)(C(=O)O)C3C2=O)c([N+](=O)[O-])c1 (stereo not drawn)		inactive: 1.14%
Cc1ccc(NC(=O)CCCCCNS(=O)(=O)c2ccc(C)cc2)cc1	inconclusive: 20.6 µM [activator, partial curve, poor fit]	
O=C(Cn1cc(C(F)(F)F)cc(Cl)c1=O)NCCc1ccc(Cl)cc1Cl	inconclusive: 0.082 µM [activator, full curve, poor fit]	
CCOc1ccc(CN2C(=O)c3ccccc3Sc3ccc(C(=O)NCCCN4CCOCC4)cc32)cc1	inconclusive: 29.1 µM [activator, single point]	
COC(=O)C1=CN(C)C=C(C(=O)OC)C1c1ccc(Cl)cc1Cl	inconclusive: 20.6 µM [activator, partial curve, poor fit]	
Nc1ncnc2c1ncn2[C@@H]1O[C@H](COP(=O)(O)O)[C@@H](O)[C@H]1O	inactive and inconclusive: 116 nM [activator, full curve]	
COc1cccc(NC(=O)CCN2C(=O)c3ccc([N+](=O)[O-])cc3C2=O)c1	inconclusive: 29.1 µM [activator, partial curve, poor fit]	
CCOC(=O)c1c2ccc(OCC(=O)N/N=C/c3ccc(C)cc3)cc2n2ccccc12	inconclusive: 6.51 µM [activator, single point]	
O=C(O)COc1ccc(/C=C/C(=O)c2ccc(C3CCCCC3)cc2)cc1	inconclusive: 29.1 µM [activator, single point]	
O=C1CCN(Cc2ccccc2)CCN1[C@H](COc1ccccc1)Cc1ccccc1		inactive: 6.12%
C=CCOc1c2ccc(C(=O)NC3CCCc4ccccc43)cc2nn1C (stereo not drawn)	inconclusive: 0.164 µM [activator, full curve, poor fit]	
COc1ccc(CCNC(=O)C2CCN(C(=O)N(C)C)CC2)cc1OC	inconclusive: 18.4 µM [activator, single point]	
O=C(/C=C/Nc1ccc(Br)cn1)c1cccc(OC(F)F)c1	inconclusive: 29.1 µM [activator, single point]	
CC(CCCC(C)(C)O)NCc1cn[nH]c1-c1ccc2c(c1)OCO2 (stereo not drawn)	inconclusive: 11.2 µM [activator, single point]	
COc1ccc(NC(=O)NC2CCCc3ccccc32)cc1OC (stereo not drawn)		inactive: -2.21%
CCN1CCCC1CNC(=O)c1cc2ccc(OC)cc2[nH]1 (stereo not drawn)	inconclusive: 0.103 µM [activator, partial curve, poor fit]	
O=C(CN1CCN(Cc2ccccc2)CC1)N/N=C/c1ccco1		inactive: -10.6%
CC(C)(C)c1ccc(C(=O)NNC(=O)c2cccc(Br)c2)cc1	inconclusive: 16.4 µM [activator, partial curve, poor fit]	
CNc1ccc(/C=C/C(=O)c2cccc3ccccc23)cc1[N+](=O)[O-]	active: 16.4 µM	
O=C1CN(C(=O)COC(=O)c2ccc([N+](=O)[O-])s2)c2ccccc2N1	inconclusive: 25.9 µM [activator, single point]	

Compound	Potency	re-replication activation
COCCCNC(CC(=O)Nc1cc(C)cc(C)c1)C(=O)O (stereo not drawn)	inconclusive: 23.1 µM [activator, single point]	
Cc1ccc(C23CC4CC(CC(NC(=O)NCCN(C)C)(C4)C2)C3)cc1	inconclusive: 20.6 µM [activator, single point]	
C=CC[C@@H](CC(=O)N[C@@H](CO)Cc1ccccc1)C(=O)N[C@@H](C)COC(=O)[C@@H](CC=C)Cc1ccc(F)cc1		inactive: -0.0755%
CC(C)CCn1c(Oc2ccc(Cl)cc2)nc2c1c(=O)n(C)c(=O)n2C		inactive: -7.41%
Cc1nc2scc(-c3ccc(C(C)(C)C)cc3)c2c(=O)n1N	inconclusive: 20.6 µM [activator, single point]	
Cc1cccc2nc(=S)n(C(=O)c3ccco3)n12	inconclusive: 29.1 µM [activator, single point]	
Cc1cc(NC(=O)CSc2nc3c(c(=O)n2-c2ccc(Br)cc2)SCC3)no1	inconclusive: 20.6 µM [activator, single point]	
Cn1cc(CC(=O)NCc2ccc(F)cc2)c2ccccc21		inactive: 1.66%
COC(=O)[C@H](Cc1ccccc1)NC(=O)N1CCN(c2ccc(F)cc2)CC1		inactive: 4.02%
COC(=O)NNC(=S)Nc1cc(OC)ccc1OC	inconclusive: 29.1 µM [activator, single point]	
O=C(NCc1ccccc1F)Nc1ccc([N+](=O)[O-])cc1		inactive: -1.77%
Cc1ccc(OCCCN2C(=O)C(=O)c3cc(C)ccc32)cc1	active: 23.1 µM	
COc1ccc(NC(=O)C(=O)NCC(c2ccco2)N2CCc3ccccc3C2)cc1 (stereo not drawn)	inconclusive: 18.4 µM [activator, partial curve, poor fit]	
Brc1ccc(C2C3=C(Nc4ncnn42)c2ccccc2OC3c2ccncc2)cc1 (stereo not drawn)	inconclusive: 23.1 µM [activator, partial curve, poor fit]	
NC(=O)C1CCN(C2=C(Cl)C(=O)c3ccccc3C2=O)CC1	inconclusive: 16.4 µM [activator, single point]	
Fc1ccccc1C1c2cccn2CCN1C(=S)Nc1cccc(Br)c1 (stereo not drawn)	inconclusive: 20.6 µM [activator, partial curve, poor fit]	
O=C(CSc1nc2ccc(Cl)cc2[nH]1)NCCc1ccccc1		inactive: -96.7%
Cc1ccc(NC(=O)C(=O)NCC2CCCN2S(=O)(=O)c2cccs2)cc1 (stereo not drawn)		inactive: 2.11%
Cc1ccc(S(=O)(=O)N/N=C/c2ccc(C#N)cc2)cc1		inactive: -7.25%
C=CCN1C(=O)[C@@H]2Cc3c([nH]c4ccccc34)C(c3ccc(O)cc3)N2C1=S (stereo partly drawn)		inactive: 9.79%
CN(C)c1ccc(C(C[N+](=O)[O-])c2c(N)n(C)c(=O)n(C)c2=O)c(F)c1C#N (stereo not drawn)	inconclusive: 14.6 µM [activator, single point]	

Some values from the list:
In re-replication activation, O=C(CSc1nc2ccc(Cl)cc2[nH]1)NCCc1ccccc1 is listed with inactive: -96.7%
In Potency, Cc1cccc2nc(=S)n(C(=O)c3ccco3)n12 is listed with inconclusive: 29.1 µM [activator, single point]
